The target in this test is PRPF31-3Flag (UniProt Q8WWY3). The experiment in a line: co-IP.

Amino acid sequences for entries named in this document (tags omitted).
UniProt Q8WWY3: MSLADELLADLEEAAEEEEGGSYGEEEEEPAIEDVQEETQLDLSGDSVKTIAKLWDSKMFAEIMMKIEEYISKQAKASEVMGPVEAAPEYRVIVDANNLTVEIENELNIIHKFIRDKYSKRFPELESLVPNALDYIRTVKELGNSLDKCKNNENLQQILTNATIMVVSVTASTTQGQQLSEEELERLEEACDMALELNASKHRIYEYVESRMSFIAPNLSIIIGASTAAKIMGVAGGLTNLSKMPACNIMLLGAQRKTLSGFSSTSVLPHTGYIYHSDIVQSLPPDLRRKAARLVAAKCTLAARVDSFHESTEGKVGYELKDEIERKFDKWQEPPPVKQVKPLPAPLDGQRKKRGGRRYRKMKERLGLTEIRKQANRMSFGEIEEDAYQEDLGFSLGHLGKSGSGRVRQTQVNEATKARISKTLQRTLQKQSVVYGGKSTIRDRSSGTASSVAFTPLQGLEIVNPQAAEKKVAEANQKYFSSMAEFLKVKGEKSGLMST

No constants are given. Whether binding was seen depends on the method and setting. In cells and extracts the contact can be indirect. Some results given as binding are weak or reduced against the parent protein; the word gives no strength.

B1: PRPH2-mCherry (protein, UniProt P23942 1-346)
chain: MALLKVKFDQKKRVKLAQGLWLMNWFSVLAGIIIFSLGLFLKIELRKRSDVMNNSESHFVPNSLIGMGVLSCVFNSLAGKICYDALDPAKYARWKPWLKPYLAICVLFNIILFLVALCCFLLRGSLENTLGQGLKNGMKYYRDTDTPGRCFMKKTIDMLQIEFKCCGNNGFRDWFEIQWISNRYLDFSSKEVKDRIKSNVDGRYLVDGVPFSCCNPSSPRPCIQYQITNNSAHYSYDHQTEELNLWVRGCRAALLSYYSSLMNSMGVVTLLIWLFEVTITIGLRYLQTSLDGVSNPEESESESQGWLLERSVPETWKAFLESVKKLGKGNQVEAEGADAGQAPEAG
For the molecule B1, the binding entry is recorded as “binds”.

The values above are taken from article doi:10.1101/2022.06.26.497680.
